According to article PMC4604457:

Legend:
[1] = target: T1, HEV ORF3 protein (O3), two-hybrid fusion (Hepatitis E virus genotype 1) (UniProt O90299); test: two-hybrid; CC: bait with C-terminal Gal4 DBD (pGBKCg), prey with C-terminal Gal4 AD (pGADCg); array-based mating, all against all; growth on SD-leu-trp-his with 3-AT at the bait's minimum inhibitory concentration (Table 2: 0, 3 or 10 mM; Table 3: 1 mM); 7 days, 30 °C
T1 sequence: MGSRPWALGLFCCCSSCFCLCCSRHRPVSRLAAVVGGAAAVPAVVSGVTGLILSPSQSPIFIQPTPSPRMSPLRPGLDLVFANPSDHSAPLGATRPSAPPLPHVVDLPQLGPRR

[2] = target: T1, HEV ORF3 protein (O3), two-hybrid fusion (Hepatitis E virus genotype 1); test: two-hybrid; CN: bait with C-terminal Gal4 DBD (pGBKCg), prey with N-terminal Gal4 AD (pGADT7g); array-based mating, all against all; growth on SD-leu-trp-his with 3-AT at the bait's minimum inhibitory concentration (Table 2: 0, 3 or 10 mM; Table 3: 1 mM); 7 days, 30 °C
[3] = target: T1, HEV ORF3 protein (O3), two-hybrid fusion (Hepatitis E virus genotype 1); test: two-hybrid; NC: bait with N-terminal Gal4 DBD (pGBKT7g), prey with C-terminal Gal4 AD (pGADCg); array-based mating, all against all; growth on SD-leu-trp-his with 3-AT at the bait's minimum inhibitory concentration (Table 2: 0, 3 or 10 mM; Table 3: 1 mM); 7 days, 30 °C
[4] = target: T1, HEV ORF3 protein (O3), two-hybrid fusion (Hepatitis E virus genotype 1); test: two-hybrid; NN: bait with N-terminal Gal4 DBD (pGBKT7g), prey with N-terminal Gal4 AD (pGADT7g); array-based mating, all against all; growth on SD-leu-trp-his with 3-AT at the bait's minimum inhibitory concentration (Table 2: 0, 3 or 10 mM; Table 3: 1 mM); 7 days, 30 °C
[5] = target: T2, HEV ORF3 protein (O3), LuMPIS construct (Hepatitis E virus genotype 1) (UniProt O90299); test: pull-down; LuMPIS: N-MBP bait and N-eGFP-Luc prey co-transfected in HEK 293T; bait captured from cleared lysate on amylose beads (20 mM Tris-HCl, 200 mM NaCl, 1 mM EDTA), eluted with 10 mM maltose; luciferase activity of the co-eluted prey; positive if the LIR differs from the control (Dunnett, p < 0.01)
T2 sequence: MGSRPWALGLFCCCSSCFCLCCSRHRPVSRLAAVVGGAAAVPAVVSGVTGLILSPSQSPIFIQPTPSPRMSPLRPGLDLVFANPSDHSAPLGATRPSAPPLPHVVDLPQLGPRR

[6] = target: Helicase domain of HEV ORF1 (Hel), LuMPIS construct (Hepatitis E virus genotype 1); test: as above
[7] = target: Methyltransferase domain of HEV ORF1 (Met), LuMPIS construct (Hepatitis E virus genotype 1); test: as above
[8] = target: Papain-like protease domain of HEV ORF1 (Plp), LuMPIS construct (Hepatitis E virus genotype 1); test: as above
[9] = target: RNA dependent RNA polymerase domain of HEV ORF1 (Rdrp), LuMPIS construct (Hepatitis E virus genotype 1); test: as above
[10] = target: X domain of HEV ORF1 (X), LuMPIS construct (Hepatitis E virus genotype 1); test: as above
[11] = target: Methyltransferase domain of HEV ORF1 (Met), two-hybrid fusion (Hepatitis E virus genotype 1); test: two-hybrid; CC: bait with C-terminal Gal4 DBD (pGBKCg), prey with C-terminal Gal4 AD (pGADCg); array-based mating, all against all; growth on SD-leu-trp-his with 3-AT at the bait's minimum inhibitory concentration (Table 2: 0, 3 or 10 mM; Table 3: 1 mM); 7 days, 30 °C
[12] = target: X domain of HEV ORF1 (X), two-hybrid fusion (Hepatitis E virus genotype 1); test: as above
[13] = target: Methyltransferase domain of HEV ORF1 (Met), two-hybrid fusion (Hepatitis E virus genotype 1); test: two-hybrid; CN: bait with C-terminal Gal4 DBD (pGBKCg), prey with N-terminal Gal4 AD (pGADT7g); array-based mating, all against all; growth on SD-leu-trp-his with 3-AT at the bait's minimum inhibitory concentration (Table 2: 0, 3 or 10 mM; Table 3: 1 mM); 7 days, 30 °C
[14] = target: X domain of HEV ORF1 (X), two-hybrid fusion (Hepatitis E virus genotype 1); test: as above
[15] = target: Methyltransferase domain of HEV ORF1 (Met), two-hybrid fusion (Hepatitis E virus genotype 1); test: two-hybrid; NC: bait with N-terminal Gal4 DBD (pGBKT7g), prey with C-terminal Gal4 AD (pGADCg); array-based mating, all against all; growth on SD-leu-trp-his with 3-AT at the bait's minimum inhibitory concentration (Table 2: 0, 3 or 10 mM; Table 3: 1 mM); 7 days, 30 °C
[16] = target: Papain-like protease domain of HEV ORF1 (Plp), two-hybrid fusion (Hepatitis E virus genotype 1); test: as above
[17] = target: RNA dependent RNA polymerase domain of HEV ORF1 (Rdrp), two-hybrid fusion (Hepatitis E virus genotype 1); test: as above
[18] = target: X domain of HEV ORF1 (X), two-hybrid fusion (Hepatitis E virus genotype 1); test: as above
[19] = target: Helicase domain of HEV ORF1 (Hel), two-hybrid fusion (Hepatitis E virus genotype 1); test: two-hybrid; NN: bait with N-terminal Gal4 DBD (pGBKT7g), prey with N-terminal Gal4 AD (pGADT7g); array-based mating, all against all; growth on SD-leu-trp-his with 3-AT at the bait's minimum inhibitory concentration (Table 2: 0, 3 or 10 mM; Table 3: 1 mM); 7 days, 30 °C
[20] = target: Methyltransferase domain of HEV ORF1 (Met), two-hybrid fusion (Hepatitis E virus genotype 1); test: as above
[21] = target: Papain-like protease domain of HEV ORF1 (Plp), two-hybrid fusion (Hepatitis E virus genotype 1); test: as above
[22] = target: RNA dependent RNA polymerase domain of HEV ORF1 (Rdrp), two-hybrid fusion (Hepatitis E virus genotype 1); test: as above
[23] = target: X domain of HEV ORF1 (X), two-hybrid fusion (Hepatitis E virus genotype 1); test: as above

Measured: binding

X domain of HEV ORF1 (X), two-hybrid fusion (Hepatitis E virus genotype 1) (domain or fragment)
binds: [1] | [2] | [3] | [4]

Papain-like protease domain of HEV ORF1 (Plp), two-hybrid fusion (Hepatitis E virus genotype 1) (domain or fragment)
binds: [2]

Papain-like protease domain of HEV ORF1 (Plp), LuMPIS construct (Hepatitis E virus genotype 1) (domain or fragment)
binds: [5]

B1: HEV ORF3 protein (O3), LuMPIS construct (protein, UniProt O90299 1-114)
chain: MGSRPWALGLFCCCSSCFCLCCSRHRPVSRLAAVVGGAAAVPAVVSGVTGLILSPSQSPIFIQPTPSPRMSPLRPGLDLVFANPSDHSAPLGATRPSAPPLPHVVDLPQLGPRR
binds: [6] | [7] | [8] | [9] | [10]

B2: HEV ORF3 protein (O3), two-hybrid fusion (protein, UniProt O90299 1-114)
chain: MGSRPWALGLFCCCSSCFCLCCSRHRPVSRLAAVVGGAAAVPAVVSGVTGLILSPSQSPIFIQPTPSPRMSPLRPGLDLVFANPSDHSAPLGATRPSAPPLPHVVDLPQLGPRR
not listed: [1] | [2] | [3] | [4] | [5] | [6] | [7] | [8] | [9] | [10]
binds: all other assays above

No constants are given. Whether binding was seen depends on the method and setting. Binding can be weak; no strength is given. For part of these data: Tags and fused reporters may be left off the sequences shown. For part of these data: Binding seen in cells or lysates may run through a third protein.
